The supplement of paper PMC12823440, “Inhibitors supercharge kinase turnover through native proteolytic circuits” (Nature, 2025)
Counter-ions that a name gives are not always drawn. Some of the results follow. Hit calls seldom repeat between salt and free forms of one compound.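 In K562 cells expressing nanoluciferase-fused kinases, luminescence was recorded at 4 h intervals between 2 and 18 h, normalized as percent of control with DMSO at 100% and a positive control at 0%. A significant (2 sigma) signal drop marks a time point as decreased. The authors' rule for a hit is not shown and takes in more than the number of time points.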

Sequences of proteins named here, by UniProt entry; tags and fusion partners are left off. A change or cut given only in a name is not applied to a line headed by its entry.
UniProt P29317, whole entry: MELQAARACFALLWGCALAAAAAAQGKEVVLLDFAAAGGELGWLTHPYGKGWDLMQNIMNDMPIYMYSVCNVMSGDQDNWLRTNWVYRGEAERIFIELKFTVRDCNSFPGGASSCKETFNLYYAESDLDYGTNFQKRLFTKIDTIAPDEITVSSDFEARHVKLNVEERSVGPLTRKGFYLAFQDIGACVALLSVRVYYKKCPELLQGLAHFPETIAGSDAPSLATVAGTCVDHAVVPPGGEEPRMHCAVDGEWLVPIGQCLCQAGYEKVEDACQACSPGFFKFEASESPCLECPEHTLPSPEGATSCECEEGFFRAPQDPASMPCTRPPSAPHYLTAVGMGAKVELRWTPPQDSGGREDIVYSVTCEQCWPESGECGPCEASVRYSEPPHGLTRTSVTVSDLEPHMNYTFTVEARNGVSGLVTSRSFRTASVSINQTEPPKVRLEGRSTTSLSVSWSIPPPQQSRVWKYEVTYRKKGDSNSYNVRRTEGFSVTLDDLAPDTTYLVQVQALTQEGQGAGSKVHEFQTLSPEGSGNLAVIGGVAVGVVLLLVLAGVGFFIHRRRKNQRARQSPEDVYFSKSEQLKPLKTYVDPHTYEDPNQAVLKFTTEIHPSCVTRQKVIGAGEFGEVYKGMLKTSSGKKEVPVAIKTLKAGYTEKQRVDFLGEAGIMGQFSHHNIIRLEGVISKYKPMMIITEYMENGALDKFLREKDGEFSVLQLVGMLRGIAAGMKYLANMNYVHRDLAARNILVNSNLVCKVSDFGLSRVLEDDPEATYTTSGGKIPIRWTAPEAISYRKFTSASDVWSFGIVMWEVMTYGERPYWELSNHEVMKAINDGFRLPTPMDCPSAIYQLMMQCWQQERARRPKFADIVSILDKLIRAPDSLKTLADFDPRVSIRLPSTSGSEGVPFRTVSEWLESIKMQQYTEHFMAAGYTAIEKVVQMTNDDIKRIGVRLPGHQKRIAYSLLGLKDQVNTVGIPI
UniProt Q15303, whole entry R711C: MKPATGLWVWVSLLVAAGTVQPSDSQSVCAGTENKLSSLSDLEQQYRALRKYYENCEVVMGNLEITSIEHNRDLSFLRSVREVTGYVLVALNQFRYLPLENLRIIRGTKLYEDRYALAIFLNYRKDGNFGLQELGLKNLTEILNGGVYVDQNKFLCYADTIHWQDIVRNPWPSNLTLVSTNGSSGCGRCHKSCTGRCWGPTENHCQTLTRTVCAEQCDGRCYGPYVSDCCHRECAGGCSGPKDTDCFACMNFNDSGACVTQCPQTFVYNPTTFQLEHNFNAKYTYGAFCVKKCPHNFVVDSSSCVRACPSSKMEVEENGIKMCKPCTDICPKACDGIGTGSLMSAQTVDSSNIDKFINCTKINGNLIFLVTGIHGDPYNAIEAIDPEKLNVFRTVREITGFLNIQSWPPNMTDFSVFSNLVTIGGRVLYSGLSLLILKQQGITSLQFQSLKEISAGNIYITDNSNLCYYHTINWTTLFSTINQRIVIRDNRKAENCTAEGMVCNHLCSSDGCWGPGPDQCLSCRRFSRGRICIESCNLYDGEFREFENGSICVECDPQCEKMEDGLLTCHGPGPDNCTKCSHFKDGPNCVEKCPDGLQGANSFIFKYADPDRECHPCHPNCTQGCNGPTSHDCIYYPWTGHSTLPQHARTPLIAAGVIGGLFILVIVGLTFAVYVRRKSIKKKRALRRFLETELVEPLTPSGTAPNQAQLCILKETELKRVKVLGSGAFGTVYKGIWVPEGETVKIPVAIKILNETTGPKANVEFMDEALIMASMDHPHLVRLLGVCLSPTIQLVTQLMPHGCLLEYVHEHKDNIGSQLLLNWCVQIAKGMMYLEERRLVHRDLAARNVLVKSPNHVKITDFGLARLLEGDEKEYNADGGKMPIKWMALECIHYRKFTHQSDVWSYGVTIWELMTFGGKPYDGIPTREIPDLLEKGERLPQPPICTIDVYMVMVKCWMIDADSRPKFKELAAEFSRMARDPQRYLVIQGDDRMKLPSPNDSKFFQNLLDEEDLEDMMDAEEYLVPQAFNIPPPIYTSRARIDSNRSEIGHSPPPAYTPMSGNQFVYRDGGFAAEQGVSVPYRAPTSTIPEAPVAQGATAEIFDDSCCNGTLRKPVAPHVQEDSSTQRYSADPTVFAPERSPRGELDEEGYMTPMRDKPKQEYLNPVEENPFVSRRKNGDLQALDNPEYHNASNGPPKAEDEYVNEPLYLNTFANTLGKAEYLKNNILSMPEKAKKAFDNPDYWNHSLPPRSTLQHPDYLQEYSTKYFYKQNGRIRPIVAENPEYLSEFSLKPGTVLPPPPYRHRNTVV
UniProt O75460: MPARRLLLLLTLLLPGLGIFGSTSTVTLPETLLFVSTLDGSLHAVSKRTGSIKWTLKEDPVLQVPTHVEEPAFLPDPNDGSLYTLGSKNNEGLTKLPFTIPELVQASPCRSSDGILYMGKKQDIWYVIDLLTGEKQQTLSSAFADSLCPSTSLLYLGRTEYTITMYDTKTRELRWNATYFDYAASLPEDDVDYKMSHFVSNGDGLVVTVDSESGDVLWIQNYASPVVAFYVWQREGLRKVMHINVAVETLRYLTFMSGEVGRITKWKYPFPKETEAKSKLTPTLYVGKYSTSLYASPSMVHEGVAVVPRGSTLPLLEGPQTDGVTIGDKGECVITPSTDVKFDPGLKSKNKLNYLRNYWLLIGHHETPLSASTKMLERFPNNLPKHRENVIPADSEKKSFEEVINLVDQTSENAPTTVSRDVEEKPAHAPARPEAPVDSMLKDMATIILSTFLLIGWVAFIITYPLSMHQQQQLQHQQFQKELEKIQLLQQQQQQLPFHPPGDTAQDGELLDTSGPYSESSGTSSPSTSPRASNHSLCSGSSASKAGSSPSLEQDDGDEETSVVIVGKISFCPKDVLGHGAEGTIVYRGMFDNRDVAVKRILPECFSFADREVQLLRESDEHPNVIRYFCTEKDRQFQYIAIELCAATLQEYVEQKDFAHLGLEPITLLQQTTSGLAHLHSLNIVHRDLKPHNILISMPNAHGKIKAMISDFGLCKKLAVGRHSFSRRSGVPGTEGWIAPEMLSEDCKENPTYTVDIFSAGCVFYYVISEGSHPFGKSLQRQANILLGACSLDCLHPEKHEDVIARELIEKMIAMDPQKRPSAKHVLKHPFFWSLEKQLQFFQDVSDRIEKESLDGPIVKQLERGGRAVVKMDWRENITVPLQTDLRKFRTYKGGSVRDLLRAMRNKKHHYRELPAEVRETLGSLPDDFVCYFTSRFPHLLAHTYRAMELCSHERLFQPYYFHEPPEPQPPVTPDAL
UniProt P11362, whole entry, looked up: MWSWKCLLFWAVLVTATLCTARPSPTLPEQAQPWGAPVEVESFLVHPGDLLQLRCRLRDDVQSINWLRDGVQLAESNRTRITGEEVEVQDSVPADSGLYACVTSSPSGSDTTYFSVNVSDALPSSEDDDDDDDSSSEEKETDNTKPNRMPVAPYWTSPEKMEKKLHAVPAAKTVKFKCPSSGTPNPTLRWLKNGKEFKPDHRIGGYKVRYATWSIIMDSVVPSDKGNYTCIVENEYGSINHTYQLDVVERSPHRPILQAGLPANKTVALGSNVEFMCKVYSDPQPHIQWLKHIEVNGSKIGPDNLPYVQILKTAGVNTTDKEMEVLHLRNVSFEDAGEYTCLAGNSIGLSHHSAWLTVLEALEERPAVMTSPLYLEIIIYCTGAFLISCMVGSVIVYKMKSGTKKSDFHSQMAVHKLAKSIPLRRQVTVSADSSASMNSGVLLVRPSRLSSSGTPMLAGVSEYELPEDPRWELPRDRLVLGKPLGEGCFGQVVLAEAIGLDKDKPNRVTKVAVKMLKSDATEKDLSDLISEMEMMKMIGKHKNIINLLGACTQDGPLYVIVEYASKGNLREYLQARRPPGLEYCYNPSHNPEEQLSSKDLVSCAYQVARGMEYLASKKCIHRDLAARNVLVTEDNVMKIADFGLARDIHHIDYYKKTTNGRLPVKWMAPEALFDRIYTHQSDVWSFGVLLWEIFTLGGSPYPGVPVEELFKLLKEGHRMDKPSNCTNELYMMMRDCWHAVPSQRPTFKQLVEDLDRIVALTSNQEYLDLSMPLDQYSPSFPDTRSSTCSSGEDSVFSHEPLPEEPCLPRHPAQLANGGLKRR
UniProt P22607, whole entry, looked up: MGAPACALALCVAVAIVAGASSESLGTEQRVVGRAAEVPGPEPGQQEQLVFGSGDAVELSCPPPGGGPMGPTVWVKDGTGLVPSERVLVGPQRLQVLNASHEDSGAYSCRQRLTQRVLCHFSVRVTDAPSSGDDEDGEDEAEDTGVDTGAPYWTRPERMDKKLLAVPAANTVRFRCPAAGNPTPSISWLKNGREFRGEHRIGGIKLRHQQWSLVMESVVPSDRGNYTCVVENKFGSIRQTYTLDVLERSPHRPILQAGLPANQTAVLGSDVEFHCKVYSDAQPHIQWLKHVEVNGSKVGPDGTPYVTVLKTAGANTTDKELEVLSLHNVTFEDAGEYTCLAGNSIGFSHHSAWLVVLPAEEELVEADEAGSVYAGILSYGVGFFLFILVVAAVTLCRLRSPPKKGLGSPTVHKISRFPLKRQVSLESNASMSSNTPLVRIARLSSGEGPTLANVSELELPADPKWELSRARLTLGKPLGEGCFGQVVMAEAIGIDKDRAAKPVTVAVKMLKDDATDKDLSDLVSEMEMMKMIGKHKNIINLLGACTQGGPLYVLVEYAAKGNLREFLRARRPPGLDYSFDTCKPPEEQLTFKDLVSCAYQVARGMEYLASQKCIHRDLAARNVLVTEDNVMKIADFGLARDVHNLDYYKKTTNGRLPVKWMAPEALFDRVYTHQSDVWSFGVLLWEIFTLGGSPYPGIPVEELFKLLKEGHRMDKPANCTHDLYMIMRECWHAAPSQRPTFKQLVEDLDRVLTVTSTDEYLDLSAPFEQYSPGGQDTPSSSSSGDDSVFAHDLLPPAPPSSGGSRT
UniProt P36888, whole entry: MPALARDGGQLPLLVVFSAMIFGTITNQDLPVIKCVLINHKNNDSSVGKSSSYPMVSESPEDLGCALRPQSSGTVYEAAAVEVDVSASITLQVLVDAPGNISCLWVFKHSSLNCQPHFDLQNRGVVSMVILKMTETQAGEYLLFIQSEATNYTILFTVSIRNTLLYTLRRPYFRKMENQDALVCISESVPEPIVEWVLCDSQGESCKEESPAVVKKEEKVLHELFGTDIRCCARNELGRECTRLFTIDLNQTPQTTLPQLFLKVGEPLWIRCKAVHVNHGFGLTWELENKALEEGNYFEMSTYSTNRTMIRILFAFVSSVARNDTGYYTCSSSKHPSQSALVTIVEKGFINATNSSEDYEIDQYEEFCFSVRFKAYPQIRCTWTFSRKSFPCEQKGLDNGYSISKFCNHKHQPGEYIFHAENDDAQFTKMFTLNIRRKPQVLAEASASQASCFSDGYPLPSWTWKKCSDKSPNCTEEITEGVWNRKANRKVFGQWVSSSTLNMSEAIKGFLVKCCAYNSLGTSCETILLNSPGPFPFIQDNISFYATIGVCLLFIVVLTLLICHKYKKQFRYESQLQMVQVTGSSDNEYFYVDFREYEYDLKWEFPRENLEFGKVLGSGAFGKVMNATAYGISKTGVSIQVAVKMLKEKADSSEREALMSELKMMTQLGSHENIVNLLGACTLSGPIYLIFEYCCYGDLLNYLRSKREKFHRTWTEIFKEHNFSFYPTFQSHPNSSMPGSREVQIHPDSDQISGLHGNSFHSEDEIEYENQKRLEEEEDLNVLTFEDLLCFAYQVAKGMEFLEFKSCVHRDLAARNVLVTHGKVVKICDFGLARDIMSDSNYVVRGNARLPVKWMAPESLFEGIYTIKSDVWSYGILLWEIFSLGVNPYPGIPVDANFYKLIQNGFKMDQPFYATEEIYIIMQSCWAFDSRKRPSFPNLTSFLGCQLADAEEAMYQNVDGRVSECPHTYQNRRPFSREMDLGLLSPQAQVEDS
UniProt P06241, whole entry, looked up: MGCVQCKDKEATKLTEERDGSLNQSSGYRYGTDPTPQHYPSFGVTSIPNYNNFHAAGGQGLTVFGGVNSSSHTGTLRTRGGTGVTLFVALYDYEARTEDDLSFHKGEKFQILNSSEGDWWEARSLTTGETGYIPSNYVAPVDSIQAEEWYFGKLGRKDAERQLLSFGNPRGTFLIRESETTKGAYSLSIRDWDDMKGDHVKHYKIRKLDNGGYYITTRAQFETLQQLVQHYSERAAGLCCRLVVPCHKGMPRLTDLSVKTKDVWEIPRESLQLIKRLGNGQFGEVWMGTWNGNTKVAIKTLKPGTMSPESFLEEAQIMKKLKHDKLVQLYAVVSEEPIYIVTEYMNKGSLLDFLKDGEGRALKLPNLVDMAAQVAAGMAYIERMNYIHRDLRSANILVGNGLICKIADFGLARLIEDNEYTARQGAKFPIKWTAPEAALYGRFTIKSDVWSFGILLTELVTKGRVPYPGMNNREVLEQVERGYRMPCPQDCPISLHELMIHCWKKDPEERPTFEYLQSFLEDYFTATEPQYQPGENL

Columns and labels:
Experiment in all cases: kinase-Nluc reporter destabilization hit call (1 = scored as downregulated) (binary); higher = compound decreases kinase abundance
Details in all cases: K562; 2-18 h
EGFR = EGFR (UniProt P00533)
EGFR_G719S = EGFR_G719S (UniProt P00533)
EGFR_G719S_T790M = EGFR_G719S_T790M (UniProt P00533)
EGFR_L718V = EGFR_L718V (UniProt P00533)
EGFR_L858R = EGFR_L858R (UniProt P00533)
EGFR_L861Q = EGFR_L861Q (UniProt P00533)
EGFR_T790M = EGFR_T790M (UniProt P00533)
EPHA2 = EPHA2 (UniProt P29317)
ERBB3 = ERBB3 (UniProt P21860)
[1] = target: ERBB4_R711C (clone: ERBB4_mut) (UniProt Q15303)
ERN1 = ERN1 (UniProt O75460)
FGFR1 = FGFR1 (UniProt P11362)
FGFR2 = FGFR2 (UniProt P21802)
FGFR3 = FGFR3 (UniProt P22607)
FGR = FGR (UniProt P09769)
FLT3 = FLT3 (UniProt P36888)
FYN = FYN (UniProt P06241)
GSK3A = GSK3A (UniProt P49840)
HER2 = HER2 (UniProt P04626)
INSRR = INSRR (UniProt P14616)

Measured: kinase-Nluc reporter destabilization hit call

CC(C)C[C@@H](C(=O)Nc1ccn(C[C@@H](O)CO)n1)N1CC(Oc2ccccc2Cl)=CC1=O [Dorzagliatin] (10 µM)
inactive: EGFR 0 | EGFR_G719S 0 | EGFR_G719S_T790M 0 | EGFR_L718V 0 | EGFR_L858R 0 | EGFR_L861Q 0 | EGFR_T790M 0 | EPHA2 = 0 | ERBB3 = 0 | [1] 0 | ERN1 = 0 | FGFR1 = 0 | FGFR2 = 0 | FGFR3 = 0 | FGR 0 | FLT3 = 0 | FYN 0 | GSK3A 0 | HER2 = 0 | INSRR 0

Cc1cc(Nc2ncnc3ccc(-c4ccc(CNCCS(C)(=O)=O)o4)cc23)ccc1Oc1ccn2ncnc2c1 [ARRY-380 (analog )] (2.5 µM)
inactive: EGFR 0 | EGFR_G719S 0 | EGFR_G719S_T790M 0 | EGFR_L718V 0 | EGFR_L858R 0 | EGFR_L861Q 0 | EGFR_T790M 0 | EPHA2 = 0 | ERBB3 = 0 | [1] 0 | ERN1 = 0 | FGFR1 = 0 | FGFR2 = 0 | FGFR3 = 0 | FGR 0 | FLT3 = 0 | FYN 0 | GSK3A 0 | HER2 = 0 | INSRR 0

CCN(CC)CCC(=O)N1N=C(c2c(-c3ccccc3)c3cc(Br)ccc3[nH]c2=O)CC1c1ccc(Br)cc1 (stereo not given) (2.5 µM)
inactive: EGFR 0 | EGFR_G719S 0 | EGFR_G719S_T790M 0 | EGFR_L718V 0 | EGFR_L858R 0 | EGFR_L861Q 0 | EGFR_T790M 0 | EPHA2 = 0 | ERBB3 = 0 | [1] 0 | ERN1 = 0 | FGFR1 = 0 | FGFR2 = 0 | FGFR3 = 0 | FGR 0 | FLT3 = 0 | FYN 0 | GSK3A 0 | HER2 = 0 | INSRR 0

COc1ccc(/C=C/C(=O)C2(C(=O)/C=C/c3ccc(OC)c(OC)c3)CCCCC2)cc1OC (2.5 µM)
inactive: EGFR 0 | EGFR_G719S 0 | EGFR_G719S_T790M 0 | EGFR_L718V 0 | EGFR_L858R 0 | EGFR_L861Q 0 | EGFR_T790M 0 | EPHA2 = 0 | ERBB3 = 0 | [1] 0 | ERN1 = 0 | FGFR1 = 0 | FGFR2 = 0 | FGFR3 = 0 | FGR 0 | FLT3 = 0 | FYN 0 | GSK3A 0 | HER2 = 0 | INSRR 0

C[C@@H]1CC(=O)c2c(ccc3c2C(=O)c2cccc(O)c2C3=O)C1 [Ochromycinone] (10 µM)
inactive: EGFR 0 | EGFR_G719S 0 | EGFR_G719S_T790M 0 | EGFR_L718V 0 | EGFR_L858R 0 | EGFR_L861Q 0 | EGFR_T790M 0 | EPHA2 = 0 | ERBB3 = 0 | [1] 0 | ERN1 = 0 | FGFR1 = 0 | FGFR2 = 0 | FGFR3 = 0 | FGR 0 | FLT3 = 0 | FYN 0 | GSK3A 0 | HER2 = 0 | INSRR 0

CCCCCCCC/C=C\CCCCCCCCCCCC(=O)O [Erucic acid] (10 µM)
inactive: EGFR 0 | EGFR_G719S 0 | EGFR_G719S_T790M 0 | EGFR_L718V 0 | EGFR_L858R 0 | EGFR_L861Q 0 | EGFR_T790M 0 | EPHA2 = 0 | ERBB3 = 0 | [1] 0 | ERN1 = 0 | FGFR1 = 0 | FGFR2 = 0 | FGFR3 = 0 | FGR 0 | FLT3 = 0 | FYN 0 | GSK3A 0 | HER2 = 0 | INSRR 0

C[C@@H]1CCNC(=O)c2cc3ccc(C(=O)Nc4nc5ccccc5n4CCCN(C)C)cc3n21 (10 µM)
inactive: EGFR 0 | EGFR_G719S 0 | EGFR_G719S_T790M 0 | EGFR_L718V 0 | EGFR_L858R 0 | EGFR_L861Q 0 | EGFR_T790M 0 | EPHA2 = 0 | ERBB3 = 0 | [1] 0 | ERN1 = 0 | FGFR1 = 0 | FGFR2 = 0 | FGFR3 = 0 | FGR 0 | FLT3 = 0 | FYN 0 | GSK3A 0 | HER2 = 0 | INSRR 0

CC(C)CNc1ccnc(NCc2csc(-c3ccccc3)n2)n1 [KHS101 hydrochloride] (2.5 µM)
inactive: EGFR 0 | EGFR_G719S 0 | EGFR_G719S_T790M 0 | EGFR_L718V 0 | EGFR_L858R 0 | EGFR_L861Q 0 | EGFR_T790M 0 | EPHA2 = 0 | ERBB3 = 0 | [1] 0 | ERN1 = 0 | FGFR1 = 0 | FGFR2 = 0 | FGFR3 = 0 | FGR 0 | FLT3 = 0 | FYN 0 | GSK3A 0 | HER2 = 0 | INSRR 0

O=C(O)c1cc(=O)c2c(OCC(O)COc3cccc4oc(C(=O)O)cc(=O)c34)cccc2o1 [Cromolyn (sodium)] (10 µM)
inactive: EGFR 0 | EGFR_G719S 0 | EGFR_G719S_T790M 0 | EGFR_L718V 0 | EGFR_L858R 0 | EGFR_L861Q 0 | EGFR_T790M 0 | EPHA2 = 0 | ERBB3 = 0 | [1] 0 | ERN1 = 0 | FGFR1 = 0 | FGFR2 = 0 | FGFR3 = 0 | FGR 0 | FLT3 = 0 | FYN 0 | GSK3A 0 | HER2 = 0 | INSRR 0

CC(C)c1cccc(C(C)C)c1N1C(=O)c2ccc(N)cc2C1=O (2.5 µM)
inactive: EGFR 0 | EGFR_G719S 0 | EGFR_G719S_T790M 0 | EGFR_L718V 0 | EGFR_L858R 0 | EGFR_L861Q 0 | EGFR_T790M 0 | EPHA2 = 0 | ERBB3 = 0 | [1] 0 | ERN1 = 0 | FGFR1 = 0 | FGFR2 = 0 | FGFR3 = 0 | FGR 0 | FLT3 = 0 | FYN 0 | GSK3A 0 | HER2 = 0 | INSRR 0

CNc1nc(Nc2cn(C(C)(C)C#N)nc2C)ncc1C(F)(F)F (10 µM)
inactive: EGFR 0 | EGFR_G719S 0 | EGFR_G719S_T790M 0 | EGFR_L718V 0 | EGFR_L858R 0 | EGFR_L861Q 0 | EGFR_T790M 0 | EPHA2 = 0 | ERBB3 = 0 | [1] 0 | ERN1 = 0 | FGFR1 = 0 | FGFR2 = 0 | FGFR3 = 0 | FGR 0 | FLT3 = 0 | FYN 0 | GSK3A 0 | HER2 = 0 | INSRR 0

O=C(Nc1nc2ccccc2[nH]1)c1cccc([N+](=O)[O-])c1 [IRAK-4 protein kinase inhibitor 2] (10 µM)
inactive: EGFR 0 | EGFR_G719S 0 | EGFR_G719S_T790M 0 | EGFR_L718V 0 | EGFR_L858R 0 | EGFR_L861Q 0 | EGFR_T790M 0 | EPHA2 = 0 | ERBB3 = 0 | [1] 0 | ERN1 = 0 | FGFR1 = 0 | FGFR2 = 0 | FGFR3 = 0 | FGR 0 | FLT3 = 0 | FYN 0 | GSK3A 0 | HER2 = 0 | INSRR 0

C[C@@H]1CN(c2cc(-c3n[nH]c4ccc(OC5(C)CC5)cc34)ncn2)C[C@H](C)O1 (10 µM)
inactive: EGFR 0 | EGFR_G719S 0 | EGFR_G719S_T790M 0 | EGFR_L718V 0 | EGFR_L858R 0 | EGFR_L861Q 0 | EGFR_T790M 0 | EPHA2 = 0 | ERBB3 = 0 | [1] 0 | ERN1 = 0 | FGFR1 = 0 | FGFR2 = 0 | FGFR3 = 0 | FGR 0 | FLT3 = 0 | FYN 0 | GSK3A 0 | HER2 = 0 | INSRR 0

COc1ccc2cc3[n+](cc2c1OC)CCc1cc(O)c(O)cc1-3 [Demethyleneberberine] (10 µM)
inactive: EGFR 0 | EGFR_G719S 0 | EGFR_G719S_T790M 0 | EGFR_L718V 0 | EGFR_L858R 0 | EGFR_L861Q 0 | EGFR_T790M 0 | EPHA2 = 0 | ERBB3 = 0 | [1] 0 | ERN1 = 0 | FGFR1 = 0 | FGFR2 = 0 | FGFR3 = 0 | FGR 0 | FLT3 = 0 | FYN 0 | GSK3A 0 | HER2 = 0 | INSRR 0

O=C(NCc1cccc(O)c1)Nc1nc(-c2ccncc2)cs1 (10 µM)
inactive: EGFR 0 | EGFR_G719S 0 | EGFR_G719S_T790M 0 | EGFR_L718V 0 | EGFR_L858R 0 | EGFR_L861Q 0 | EGFR_T790M 0 | EPHA2 = 0 | ERBB3 = 0 | [1] 0 | ERN1 = 0 | FGFR1 = 0 | FGFR2 = 0 | FGFR3 = 0 | FGR 0 | FLT3 = 0 | FYN 0 | GSK3A 0 | HER2 = 0 | INSRR 0

Cc1c(-c2ccc(C(N)=O)c3[nH]c4cc(C(C)(C)O)ccc4c23)cccc1-n1cnc2ccccc2c1=O (2.5 µM)
inactive: EGFR 0 | EGFR_G719S 0 | EGFR_G719S_T790M 0 | EGFR_L718V 0 | EGFR_L858R 0 | EGFR_L861Q 0 | EGFR_T790M 0 | EPHA2 = 0 | ERBB3 = 0 | [1] 0 | ERN1 = 0 | FGFR1 = 0 | FGFR2 = 0 | FGFR3 = 0 | FGR 0 | FLT3 = 0 | FYN 0 | GSK3A 0 | HER2 = 0 | INSRR 0

COc1ccc(N=Nc2c(N)n[nH]c2N)cc1 (10 µM)
inactive: EGFR 0 | EGFR_G719S 0 | EGFR_G719S_T790M 0 | EGFR_L718V 0 | EGFR_L858R 0 | EGFR_L861Q 0 | EGFR_T790M 0 | EPHA2 = 0 | ERBB3 = 0 | [1] 0 | ERN1 = 0 | FGFR1 = 0 | FGFR2 = 0 | FGFR3 = 0 | FGR 0 | FLT3 = 0 | FYN 0 | GSK3A 0 | HER2 = 0 | INSRR 0

COc1ccc2cc(-c3nc(-c4ccc([S+](C)[O-])cc4)[nH]c3-c3ccncc3)ccc2c1 (stereo not given) [Tie2 kinase inhibitor 1] (2.5 µM)
inactive: EGFR 0 | EGFR_G719S 0 | EGFR_G719S_T790M 0 | EGFR_L718V 0 | EGFR_L858R 0 | EGFR_L861Q 0 | EGFR_T790M 0 | EPHA2 = 0 | ERBB3 = 0 | [1] 0 | ERN1 = 0 | FGFR1 = 0 | FGFR2 = 0 | FGFR3 = 0 | FGR 0 | FLT3 = 0 | FYN 0 | GSK3A 0 | HER2 = 0 | INSRR 0

Already shown: 2 of the compounds above.
CC(C)c1cccc(C(C)C)c1N1C(=O)c2ccc(N)cc2C1=O (2.5 µM)
inactive: EGFR 0 | EGFR_G719S 0 | EGFR_G719S_T790M 0 | EGFR_L718V 0 | EGFR_L858R 0 | EGFR_L861Q 0 | EGFR_T790M 0 | EPHA2 = 0 | ERBB3 = 0 | [1] 0 | ERN1 = 0 | FGFR1 = 0 | FGFR2 = 0 | FGFR3 = 0 | FGR 0 | FLT3 = 0 | FYN 0 | GSK3A 0 | HER2 = 0 | INSRR 0

CNc1nc(Nc2cn(C(C)(C)C#N)nc2C)ncc1C(F)(F)F (10 µM)
inactive: EGFR 0 | EGFR_G719S 0 | EGFR_G719S_T790M 0 | EGFR_L718V 0 | EGFR_L858R 0 | EGFR_L861Q 0 | EGFR_T790M 0 | EPHA2 = 0 | ERBB3 = 0 | [1] 0 | ERN1 = 0 | FGFR1 = 0 | FGFR2 = 0 | FGFR3 = 0 | FGR 0 | FLT3 = 0 | FYN 0 | GSK3A 0 | HER2 = 0 | INSRR 0
